Assay results from PMC4518267.
No constants are given. Whether binding was seen depends on the method and setting. In cells and extracts the contact can be indirect. Some entries that bind do so weakly or less than the wild type. For part of these data: Tags and fused reporters may be left off the sequences shown. Values belong to the substance of their own block, whether it stands above or below them.

Protein sequences, listed by entry. Tags and fused reporters are not part of them.
UniProt P31749: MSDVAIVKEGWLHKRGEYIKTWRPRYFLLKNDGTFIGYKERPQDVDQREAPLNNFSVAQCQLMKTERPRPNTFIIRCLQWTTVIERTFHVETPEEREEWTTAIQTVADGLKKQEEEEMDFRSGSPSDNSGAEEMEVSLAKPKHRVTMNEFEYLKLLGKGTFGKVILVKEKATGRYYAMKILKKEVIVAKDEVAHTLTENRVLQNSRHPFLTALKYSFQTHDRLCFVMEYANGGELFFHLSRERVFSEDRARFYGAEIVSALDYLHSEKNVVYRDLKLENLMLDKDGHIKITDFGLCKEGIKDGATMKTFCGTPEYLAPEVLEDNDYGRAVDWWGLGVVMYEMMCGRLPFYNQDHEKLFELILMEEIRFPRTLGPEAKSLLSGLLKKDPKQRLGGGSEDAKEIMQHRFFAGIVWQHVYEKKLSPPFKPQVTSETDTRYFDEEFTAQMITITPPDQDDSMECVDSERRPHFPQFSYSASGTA

Assays:
[1] = target: T1, MKRN1, ectopically expressed (overexpressed) (UniProt Q9UHC7); assay: co-IP; ectopically expressed (overexpressed) proteins; cells lysed in 50 mM Tris-HCl pH 7.5, 150 mM NaCl, 0.5% Triton X-100, 1 mM EDTA; 1 ug antibody, protein G agarose
T1 sequence: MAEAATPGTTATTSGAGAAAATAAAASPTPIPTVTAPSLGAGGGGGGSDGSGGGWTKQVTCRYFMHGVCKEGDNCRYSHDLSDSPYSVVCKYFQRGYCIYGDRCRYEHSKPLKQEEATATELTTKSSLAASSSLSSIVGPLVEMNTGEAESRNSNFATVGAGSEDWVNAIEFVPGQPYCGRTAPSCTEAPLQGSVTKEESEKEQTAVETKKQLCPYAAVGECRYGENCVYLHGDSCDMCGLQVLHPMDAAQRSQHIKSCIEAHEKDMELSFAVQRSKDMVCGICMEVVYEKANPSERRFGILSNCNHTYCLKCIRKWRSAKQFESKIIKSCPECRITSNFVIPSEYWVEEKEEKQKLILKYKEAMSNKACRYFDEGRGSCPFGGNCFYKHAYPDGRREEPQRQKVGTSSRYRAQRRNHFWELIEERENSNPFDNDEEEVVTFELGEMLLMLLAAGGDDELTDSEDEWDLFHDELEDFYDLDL

[2] = target: T2, GST-MKRN1 purified from bacteria (UniProt Q9UHC7); assay: pull-down; GST-MKRN1 purified from bacteria incubated 2 h with in vitro translated protein under cell-free conditions, pulled down by glutathione (GST) Sepharose beads, eluted in 10 mM reduced glutathione; only the target purified
T2 sequence: T1 sequence

[3] = target: T3, endogenous MKRN1 of ME-180 cells (human (endogenous in ME-180)) (UniProt Q9UHC7); assay: co-IP; endogenous MKRN1 immunoprecipitated from ME-180 cells with or without EGF treatment (100 ng/ml); bound endogenous AKT1 immunoblotted
T3 sequence: T1 sequence

- binding [1]: binds
Substance: AKT1, ectopically expressed (from UniProt P31749 1-480)

- binding [2]: binds
Substance: in vitro translated HA-AKT1 (from UniProt P31749 1-480)

- binding [3]: binds
Substance: endogenous AKT1 of ME-180 cells (from UniProt P31749 1-480)
